Experimental data taken from PMC5094555, “Human Mitochondrial Cytochrome b Variants Studied in Yeast: Not All Are Silent Polymorphisms” (Human Mutation, 2016).

Sequences of proteins named here, by UniProt entry; tags and fusion partners are left off. A change or cut given only in a name is not applied to a line headed by its entry.
UniProt P00157: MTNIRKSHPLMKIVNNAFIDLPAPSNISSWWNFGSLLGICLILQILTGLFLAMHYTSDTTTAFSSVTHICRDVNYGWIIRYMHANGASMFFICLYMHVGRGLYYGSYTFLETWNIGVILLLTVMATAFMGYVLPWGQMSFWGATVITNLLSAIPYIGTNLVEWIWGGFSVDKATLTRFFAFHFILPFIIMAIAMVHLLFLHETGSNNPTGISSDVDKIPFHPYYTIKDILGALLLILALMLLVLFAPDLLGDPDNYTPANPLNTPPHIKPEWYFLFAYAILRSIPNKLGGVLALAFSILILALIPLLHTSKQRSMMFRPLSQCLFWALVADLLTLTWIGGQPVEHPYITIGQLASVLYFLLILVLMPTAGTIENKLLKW

Target: bovine complex III (Bos taurus, UniProt P00157)
Test: biochemical

## CN(C)CCCN1c2ccccc2CCc2ccc(Cl)cc21 [clomipramine]
  IC50: 24 ± 5 µM
